The campaign covered roughly 330,000 compounds. About 670 (0.2%) were called active. Inconclusive results, whose numbers are uncertain, are shown with a selection of clear calls.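 Rule for the calls: active = activity change below a set negative limit, meaning inhibition stronger than a set level (cut at about -70% in these data); inconclusive = activity change between two set negative limits; inactive = the rest.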
Each compound was assayed against Thyrotropin receptor (Homo sapiens) (UniProt P16473) (assay: Antagonists of the Thyroid Stimulating Hormone Receptor: HTS campaign). Details: TSHR-expressing cells, TSH-stimulated cAMP HTRF, 2 h; at 11.5 µM; hits give low values.
Method in brief: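 Inhibition of cAMP made by TSHR-expressing cells under TSH stimulation (4nM final, EC80; 2 h, 37 deg C) is quantified with a one-step lysis HTRF kit, anti-cAMP cryptate versus cAMP-d2.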
% is set by controls: 0 for no effect and ±100 for the full control effect.

Sequences of proteins named here, by UniProt entry; tags and fusion partners are left off.
UniProt P16473, whole entry, looked up: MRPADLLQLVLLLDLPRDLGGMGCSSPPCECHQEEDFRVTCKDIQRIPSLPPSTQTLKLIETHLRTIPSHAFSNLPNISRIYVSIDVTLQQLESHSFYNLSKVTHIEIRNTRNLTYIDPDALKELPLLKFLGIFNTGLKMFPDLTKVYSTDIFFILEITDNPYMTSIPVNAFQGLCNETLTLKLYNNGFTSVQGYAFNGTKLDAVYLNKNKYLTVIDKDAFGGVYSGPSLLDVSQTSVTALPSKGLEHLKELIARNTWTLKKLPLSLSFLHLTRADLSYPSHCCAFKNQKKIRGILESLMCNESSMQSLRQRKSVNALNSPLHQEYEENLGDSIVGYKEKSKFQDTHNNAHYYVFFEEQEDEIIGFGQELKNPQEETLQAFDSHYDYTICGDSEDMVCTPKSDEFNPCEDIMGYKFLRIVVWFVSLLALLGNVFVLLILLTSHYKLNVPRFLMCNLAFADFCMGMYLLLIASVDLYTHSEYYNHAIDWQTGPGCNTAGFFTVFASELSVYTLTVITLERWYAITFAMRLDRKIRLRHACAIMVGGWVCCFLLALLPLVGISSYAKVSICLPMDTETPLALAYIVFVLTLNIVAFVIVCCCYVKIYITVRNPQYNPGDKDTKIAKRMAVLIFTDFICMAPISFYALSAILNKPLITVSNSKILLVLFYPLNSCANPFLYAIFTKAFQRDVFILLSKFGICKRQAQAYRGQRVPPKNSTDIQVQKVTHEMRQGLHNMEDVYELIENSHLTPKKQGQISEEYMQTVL

Compound | activity change, negative = inhibition
CC(=O)c1ccc(NC(=O)C(C)N(C)CC(=O)Nc2ccc(N3CCOCC3)cc2)cc1 (configuration not stated) | inconclusive: -69.3%
COc1ccc(CN(C)Cc2nc3scc(-c4ccccc4)c3c(=O)[nH]2)cc1OC | inactive: -11%
Cc1ccccc1CSCCNC(=O)c1ccc(N(C)S(=O)(=O)c2ccccc2)cc1 | inconclusive: -58%
CCOc1cc(/C=C/c2ccc3cccc([N+](=O)[O-])c3n2)cc(Cl)c1O | active: -72.4%
Cc1ccc(S(=O)(=O)/N=C2\C=C(Nc3cccc(C(=O)O)c3)C(=O)c3ccccc32)c(C)c1 | inconclusive: -59.5%
O=C(CN1CCN(C(=O)c2ccc(-c3nc4ccccc4s3)o2)CC1)Nc1ccc(F)cc1 | inactive: -33.6%
COc1ccccc1C(=O)Nc1nc(-c2ccc(S(=O)(=O)N3CCOCC3)cc2)cs1 | inconclusive: -67.1%
Cc1cccc(NC(=O)CSc2nc(-c3ccco3)nc3cc(=O)[nH]n23)c1 | inactive: -14.4%
COc1cc(/C=N/Nc2snc(SC)c2C#N)cc(OC)c1OC | inconclusive: -59.7%
O=C(O)CCCCCN1C(=O)/C(=C\c2ccncc2)SC1=S | inactive: 5.41%
COc1ccccc1N1CCN(c2ncnc3c2oc2ccccc23)CC1 | inconclusive: -56.2%
CCOC(=O)N1CCN(C(=O)CSCC(=O)Nc2nc(-c3ccc(-c4ccccc4)cc3)cs2)CC1 | inconclusive: -65.1%
Cc1ncsc1CCOC(=O)C12CC3CC(CC(C3)C1)C2 | inconclusive: -51%
CN(c1ccccc1)S(=O)(=O)c1cccc(NC(=O)c2cc(=O)c3ccccc3o2)c1 | inconclusive: -53.6%
O=C(Nc1ccccc1)c1nnsc1S(=O)(=O)c1ccc(Cl)cc1 | inconclusive: -59.4%
O=C(Nc1ccccc1C(=O)NC(Cc1ccc(O)cc1)C(=O)O)c1ccccc1 (configuration not stated) | inactive: -4.93%
Cn1c(CNC(=O)C(Cc2ccccc2)NC(=O)c2ccccc2)cc(=O)n(C)c1=O (configuration not stated) | active: -144%
O=C(OCC(=O)N1CCCC1=O)c1nc(Cl)c(Cl)c(Cl)c1Cl | inconclusive: -57.3%
CC(OC(=O)C1CCN(c2ccc(C(F)(F)F)cn2)CC1)C(=O)Nc1cccc([N+](=O)[O-])c1 (configuration not stated) | inconclusive: -51%
COc1ccc(N2CCN(C(=O)c3ccccc3N(C)S(=O)(=O)c3ccccc3)CC2)cc1 | inconclusive: -63.7%
Cn1cc(Cl)c(C(=O)N/N=C/c2ccc3c4c(cccc24)CC3)n1 | active: -79.9%

Compound | activity change, negative = inhibition
CCCCCCOc1ccc(NC(=O)CC2C(=O)N(CC)C(=S)N2Cc2ccco2)cc1 (configuration not stated) | inconclusive: -50.6%
COCCNC(=O)C1c2ccccc2C(=O)N(CCOC)C1c1ccc(F)cc1 (configuration not stated) | inactive: 1.3%
O=C(NC(Nc1nc2ccc([N+](=O)[O-])cc2s1)(C(F)(F)F)C(F)(F)F)c1ccccc1 | active: -78.9%
CCc1nn(CC(=O)N2CCCCCC2)c(=O)c2cc3ccccc3n12 | inconclusive: -50.3%
O=C(CCCN1C(=O)/C(=C/c2ccccc2Cl)SC1=S)Nc1cccnc1 | active: -71.7%
CCCc1nc(SCC(=O)Nc2nnc(SCC)s2)c2c(=O)n(C)c(=O)n(C)c2n1 | inactive: -0.786%
COc1ccc(NS(=O)(=O)c2cc(NC(=O)/C=C/c3cc(OC)ccc3OC)ccc2N2CCCCC2)cc1 | inconclusive: -54.6%
Cc1ccc(C(=O)O)cc1N1C(=O)c2cccc3c([N+](=O)[O-])ccc(c23)C1=O | active: -73.4%
O=C(CSc1nnc2sc3ccccc3n12)c1ccco1 | inactive: 7.27%
CCC(CO)Oc1cc(NC(=O)c2ccccc2F)c2ncn(C(C)C)c2c1 (configuration not stated) | inactive: 54.6%
O=C(Nc1ccccn1)c1nc(-c2ccccc2)n(-c2ccccc2)n1 | inconclusive: -53.1%
O=C(CCC(=O)Nc1ccccc1Cl)NNC(=O)C1CCCCC1 | inactive: 10.6%
COCCNCCCOc1ccc(C)cc1Br | inactive: 36.5%
C=CC[C@@H](CC(=O)N[C@@H](CO)Cc1ccccc1)C(=O)NC[C@H](OC(=O)[C@@H](CC=C)Cc1ccc(F)cc1)c1ccccc1 | inconclusive: -50.8%
C/C(=N/NS(=O)(=O)c1ccc(Br)cc1)c1ccc(NC(=O)c2ccc(C)o2)cc1 | inconclusive: -50.3%
Cc1ccc(SCC(=O)NCc2ccccc2C)cc1 | active: -122%
CCOc1cc(N2CCOCC2)c(OCC)cc1NC(=O)c1ccc(OCc2c(C)noc2C)c(OC)c1 | inconclusive: -67%
Oc1c(Cl)cc(Cl)c(Cl)c1Cc1c(O)c(Cl)cc(Cl)c1Cl | active: -103%
CC(C)(C)OC(=O)NCCCCCc1cn([C@@H](CO)C(=O)NCCCCCCCCCCC(=O)N2CCN(C(=O)OC(C)(C)C)CC2)nn1 | active: -95.3%
Cc1ccc(C(=O)c2cc([N+](=O)[O-])ccc2N2CCCCC2)cc1 | inactive: 4.13%
COc1ccc(C(=O)/C=C/C(=O)N(CC(=O)NC2CCCCC2)Cc2ccccc2OC)c(O)c1 | inactive: -24%

Entries from the list above containing a CF3 group, in the order listed:
Compound | activity change, negative = inhibition
CC(OC(=O)C1CCN(c2ccc(C(F)(F)F)cn2)CC1)C(=O)Nc1cccc([N+](=O)[O-])c1 (configuration not stated) | inconclusive: -51%
O=C(NC(Nc1nc2ccc([N+](=O)[O-])cc2s1)(C(F)(F)F)C(F)(F)F)c1ccccc1 | active: -78.9%
